Source: PubChem BioAssay AID2685 (National Center for Advancing Translational Sciences (NCATS), 2010)
Some of the results follow. The main result of the screen is listed elsewhere. These columns were measured beside it and carry no call. The list favours compounds with an active or inconclusive main result. Words in brackets tell the shape of the fitted curve; partial curves, single points and poor fits give uncertain potencies.

Assay: qHTS Assay for Lipid Storage Modulators in Drosophila S3 Cells;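 for cell number change: cells counted by Cell Tracker Red CMTPX staining in the red channel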
Settings: BODIPY lipid droplet fluorescence, 18-24 h; for cell number change: measured here: cell count max response, cells fed with added oleic acid
How it was run: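 Drosophila S3 cells loaded with oleic acid (400 uM, as added) and compounds at several concentrations; lipid droplets imaged by 488-nm laser-scanning cytometry, 500–530 nm intensity and object ratio to cell channel. Percent activity normalized to 20 uM Triacsin C.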

[1] = measured here: lipid fluorescence (Fed channel) AC50, cells fed with added oleic acid
[2] = measured here: cell number channel AC50, cells fed with added oleic acid

Compound | cell number change [%] | AC50 [1] | AC50 [2]
Cc1cc(C)cc(NC(=O)C(OC(=O)Cn2cnc3c2c(=O)n(C)c(=O)n3C)c2ccccc2)c1 (stereo unspecified) | -6.94 | 6510 nM [rising, single point] | 
CC(=O)Nc1ccc(S(=O)(=O)N2CCN=C2SCc2ccccc2C)cc1 | -16.1 |  | 
CN(CC(=O)Nc1cccc(F)c1)C(=O)c1cc(-c2ccco2)nc2ccccc12 | 43.3 | 3260 nM [rising, partial curve, poor fit] | 2060 nM [rising, full curve]
CC1(C)Cc2ccccc2-c2nnnn21 | -20.5 | 1300 nM [falling, partial curve] | 
O=C(COc1ccccc1Cl)NCc1ccco1 | 43.8 |  | 
Brc1ccc(C2CC(c3ccccc3)=Nc3ccccc3N2)cc1 (stereo unspecified) | 35.5 | 16400 nM [rising, partial curve] | 9200 nM [rising, partial curve]
COc1ccc(NC(=O)COC(=O)CNS(=O)(=O)c2ccc(C)cc2)c(OC)c1 | -10.6 | 651 nM [falling, partial curve] | 
Cc1ccc(S(=O)(=O)N2C(=O)CCC2C(=O)Nn2cnnc2)cc1 (stereo unspecified) | -0.147 | 461 nM [falling, single point] | 
O=C(CNC(=O)Cc1ccccc1)NCC(=O)OCc1ccc(C(=O)c2ccccc2)cc1 | -10.1 | 731 nM [falling, full curve] | 
C=CCOc1ccc(C2/C(=C(/O)c3ccc4c(c3)CC(C)O4)C(=O)C(=O)N2CCCN2CCOCC2)cc1 (stereo unspecified) |  |  | 366 nM [falling, full curve, poor fit]
CC(C)(C)C1CCc2onc(C(=O)NCc3ccc(F)cc3)c2C1 (stereo unspecified) | -5.73 | 651 nM [falling, single point] | 
CC12CCC(=O)N1C(C(=O)NNC(=O)COc1cccc(C(F)(F)F)c1)CS2 (stereo unspecified) |  | 651 nM [falling, single point] | 
c1coc(-c2nc3nc4ccccc4nc3n2CC2CCCO2)c1 (stereo unspecified) | 104 | 23100 nM [rising, single point] | 8200 nM [rising, partial curve]
COc1ccc(NC(=S)N2CCN(c3ccc([N+](=O)[O-])cc3)CC2)cc1OC | -8.54 | 580 nM [falling, full curve] | 
CCCNC(=O)C1CCN(c2cc(-c3ccccc3)nc3ncnn23)CC1 | -23.8 | 20600 nM [falling, single point] | 
COc1cccc(N2CCN(c3ccc4nnc(CCC(=O)N5CCN(C)CC5)n4n3)CC2)c1 | -62 |  | 20600 nM [falling, single point]

Look-ups from the results shown.
In cell number change [%], O=C(COc1ccccc1Cl)NCc1ccco1 is entered as 43.8
In AC50 [1], COc1ccc(NC(=O)COC(=O)CNS(=O)(=O)c2ccc(C)cc2)c(OC)c1 is entered as 651 nM [falling, partial curve]
